# Reference: the supplement of paper PMC9135407
# “And” between values parts separate entries of the source, which are not always exact repeats. Equal values may be shown once. Where a name gives a salt, the structure may show the parent alone. ± gives the standard deviation of the averaged measurements. The list shows a part of the results. Plates or batches differ in their baseline, so values are only roughly comparable.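 Primary human stellate myofibroblasts activated in culture; inactivation shown by regained lipid droplets. Readout: fraction of Hoechst-counted cells exceeding a per-plate Bodipy threshold, duplicate wells, each plate with DMSO negative and nortriptyline positive controls. Hits: control-normalized score beyond the plate's top-tenth-percentile nortriptyline wells, or among its three best wells. Final well concentrations unstated.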
# System: primary human hepatic stellate cells (donor 1)
# Test: percent Bodipy-positive cells; higher = more lipid droplet accumulation
# Conditions: 48 h
# [1] = library stock concentration: 2 mM
# [2] = library stock concentration: 3.33 mM
# [3] = library stock concentration: 10 mM
# [4] = library stock concentration: 1 mM
# [5] = library stock concentration: 13.1 mM
compound,measurement,setting,value
O=c1ncn2nc(Sc3ccc(F)cc3F)ccc2c1-c1c(Cl)cccc1Cl,percent Bodipy-positive cells,library stock concentration: 80 uM,15.7 ± 0.34%
same,percent Bodipy-positive cells,library stock concentration: 400 uM,20.6 ± 3%
same,percent Bodipy-positive cells,[1],28 ± 3.8%
same,percent Bodipy-positive cells,[2],12.8 ± 3.9%
same,percent Bodipy-positive cells,[3],27.5% and 24.8%
CC(C)Cc1ccc([C@H](C)C(=O)O)cc1 [S(+)-Ibuprofen],percent Bodipy-positive cells,[3],33.8 ± 6%
CC(C)Cc1ccc([C@H](C)C(=O)O)cc1 [S-(+)-ibuprofen],percent Bodipy-positive cells,,6.9 ± 4%
Cc1cncc(CN2CCC(=C3c4ccc(Cl)cc4CCc4cccnc43)CC2)c1 [Rupatadine Fumarate],percent Bodipy-positive cells,[2],39.2 ± 5.2%
CS(=O)(=O)c1ccc([C@@H](O)[C@@H](CO)NC(=O)C(Cl)Cl)cc1 [Thiamphenicol],percent Bodipy-positive cells,,21.7 ± 6.5%
same,percent Bodipy-positive cells,[2],20.2 ± 23%
same,percent Bodipy-positive cells,[3],9.02% and 32.4%
N#CCNC(=O)c1ccc(-c2ccnc(Nc3ccc(N4CCOCC4)cc3)n2)cc1 [Momelotinib (CYT387) (10 mM)],percent Bodipy-positive cells,[3],99.66 ± 0.48%
N#CCNC(=O)c1ccc(-c2ccnc(Nc3ccc(N4CCOCC4)cc3)n2)cc1 [Momelotinib (CYT387) (2 mM)],percent Bodipy-positive cells,[1],79.9 ± 7.9%
CC(=O)Oc1cc(C(F)(F)F)ccc1C(=O)O [Triflusal],percent Bodipy-positive cells,,29.4 ± 14%
same,percent Bodipy-positive cells,[2],15.8 ± 3.3%
same,percent Bodipy-positive cells,[3],24.8 ± 3%
N=c1ccn2c(n1)O[C@H]1[C@H](O)[C@@H](CO)O[C@H]12 [Cyclocytidine HCl],percent Bodipy-positive cells,[2],17.4 ± 3.7%
same,percent Bodipy-positive cells,library stock concentration: 8.9 mM,9.75 ± 2.5%
same,percent Bodipy-positive cells,[3],21.5 ± 9.6%
N=c1ccn2c(n1)O[C@H]1[C@H](O)[C@@H](CO)O[C@H]12 [Ancitabine hydrochloride],percent Bodipy-positive cells,[3],61.8% and 44.3%
CC(=O)Oc1c(C)cccc1C(=O)O,percent Bodipy-positive cells,[3],28.4 ± 5%
C[N+](C)(C)CCO.[Br-] [Choline bromide],percent Bodipy-positive cells,[3],32.8 ± 8.6%
CNC(=O)c1ccc2cc([C@@]3(O)CCn4cncc43)ccc2c1 [TAK-700 (Orteronel)],percent Bodipy-positive cells,[2],9.72 ± 5.4%
same,percent Bodipy-positive cells,[3],28.5 ± 5%
CCCCCCCC/C=C\CCCCCCCC(=O)NCc1ccc(O)c(OC)c1 [Olvanil],percent Bodipy-positive cells,[4],8.98 ± 2.8%
same,percent Bodipy-positive cells,[3],21.9% and 9.89%
O=C1NC(=O)/C(=C\c2ccc3nccnc3c2)S1,percent Bodipy-positive cells,[4],14.8 ± 9.5%
same,percent Bodipy-positive cells,[3],33.6 ± 3.9%
Cc1cc(C(C)(C)CC(C)(C)C)ccc1OCCOCC[N+](C)(C)Cc1ccccc1 [Methyl benzethonium chloride],percent Bodipy-positive cells,,54.6 ± 6.3%
Cc1cc(C(C)(C)CC(C)(C)C)ccc1OCCOCC[N+](C)(C)Cc1ccccc1 [Methylbenzethonium chloride],percent Bodipy-positive cells,[3],62.9 ± 7.5%
Cc1cc(NC(=O)C2=C(O)c3ccccc3S(=O)(=O)N2C)no1 [Isoxicam],percent Bodipy-positive cells,,19.3 ± 2.9%
same,percent Bodipy-positive cells,library stock concentration: 6 mM,8.8 ± 4.8%
same,percent Bodipy-positive cells,[3],37.8 ± 0.71%
CN(C)S(=O)(=O)c1ccc2c(c1)/C(=C/c1cc3c([nH]1)CCCC3)C(=O)N2,percent Bodipy-positive cells,[3],88.88 ± 0.56%
CO[C@@]1(NC(=O)C2SC(=C(C(N)=O)C(=O)O)S2)C(=O)N2C(C(=O)O)=C(CSc3nnnn3C)CS[C@@H]21 (stereo partly specified) [Cefotetan],percent Bodipy-positive cells,,26.6 ± 6.3%
CN(C)CCCN1c2ccccc2CCc2ccc(Cl)cc21 [Clomipramine HCl],percent Bodipy-positive cells,[2],63.7 ± 1.6%
CN(C)CCCN1c2ccccc2CCc2ccc(Cl)cc21 [Clomipramine hydrochloride],percent Bodipy-positive cells,library stock concentration: 5.7 mM,86.5 ± 1.1%
CN(C)CCCN1c2ccccc2CCc2ccc(Cl)cc21,percent Bodipy-positive cells,[3],92.3 ± 6.1%
COC(=O)N1CCN(Cc2cccc(NC(=O)Nc3ccc(C)nc3)c2F)CC1,percent Bodipy-positive cells,[2],11.1 ± 3.5%
same,percent Bodipy-positive cells,[3],24.2 ± 2.2%
Clc1ccccc1CN1CCc2sccc2C1 [Ticlopidine hydrochloride],percent Bodipy-positive cells,,26.4 ± 2.7%
same,percent Bodipy-positive cells,library stock concentration: 6.7 mM,24.7 ± 11%
Clc1ccccc1CN1CCc2sccc2C1,percent Bodipy-positive cells,[3],13.9 ± 3.8%
Clc1ccccc1CN1CCc2sccc2C1 [Ticlopidine HCl],percent Bodipy-positive cells,library stock concentration: 7.6 mM,12.8 ± 0.53%
CCC(=O)O[C@H](CC(=O)O)C[N+](C)(C)C,percent Bodipy-positive cells,[3],33.7 ± 8%
COc1cc(Br)c(S(=O)(=O)Nc2ccc(Cl)c(O[C@@H]3CCN(C)C3)c2)cc1OC,percent Bodipy-positive cells,[3],24.8 ± 7.8%
CCc1cccc(N(C)C(=N)Nc2cccc3ccccc23)c1.Cl,percent Bodipy-positive cells,[3],96.97 ± 0.75%
CCN(CC)CCOC(=O)C1(c2ccc([N+](=O)[O-])cc2)CCCC1 [Nitrocaramiphen hydrochloride],percent Bodipy-positive cells,,29 ± 5.5%
same,percent Bodipy-positive cells,[3],30.54 ± 0.21%
Nc1ccc(O)c(C(=O)O)c1 [5-Aminosalicylic Acid],percent Bodipy-positive cells,[4],12.7 ± 5.2%
Nc1ccc(O)c(C(=O)O)c1 [Mesalamine],percent Bodipy-positive cells,,7.67 ± 2.6%
same,percent Bodipy-positive cells,[2],7.61 ± 1.3%
same,percent Bodipy-positive cells,[3],14.6 ± 6.7%
same,percent Bodipy-positive cells,[5],10.8 ± 0.21%
Nc1ccc(O)c(C(=O)O)c1 [5-Amino-2-hydroxy-benzoic acid],percent Bodipy-positive cells,[3],5.27 ± 3.2%
Nc1ccc(O)c(C(=O)O)c1 [5-aminosalicylic acid],percent Bodipy-positive cells,[5],5.11 ± 1.1%
COc1cc2ncnc(Nc3ccc(F)c(Cl)c3)c2cc1NC(=O)C=CCN1CCCCC1,percent Bodipy-positive cells,[2],96.997 ± 0.038%
CNC(=O)[C@H]1O[C@@H](n2cnc3c(NCc4ccc(N)cc4)ncnc32)[C@H](O)[C@@H]1O,percent Bodipy-positive cells,[3],30.5 ± 3.5%
CN(C)c1nc(N)c(C(=O)Nc2cccnc2)nc1Cl [ACDPP hydrochloride],percent Bodipy-positive cells,[3],8.22 ± 0.45%
N#Cc1ccc(NCCNCC(=O)N2CCC[C@H]2C#N)nc1 [NVP DPP 728 dihydrochloride],percent Bodipy-positive cells,[3],7.02 ± 2.8%
COc1cc(N2CCN(C)CC2)ccc1Nc1nccc(-c2cn(C)c3cnccc23)n1,percent Bodipy-positive cells,[2],56.2 ± 3.9%
same,percent Bodipy-positive cells,[3],100%
COc1cc2c(cc1O)CC[C@@H]1[C@@H]2CC[C@]2(C)[C@@H](O)CC[C@@H]12 [2-Methoxyestradiol (2-MeOE2)],percent Bodipy-positive cells,[2],15.6 ± 6.3%
same,percent Bodipy-positive cells,[3],35 ± 5.5%
COc1cc2c(cc1O)CC[C@@H]1[C@@H]2CC[C@]2(C)[C@@H](O)CC[C@@H]12 [2-Methoxyestradiol],percent Bodipy-positive cells,[3],12 ± 5%
COc1cc2c(cc1O)CC[C@@H]1[C@@H]2CC[C@]2(C)[C@@H](O)CC[C@@H]12 [2-methoxyestradiol],percent Bodipy-positive cells,[3],56.4 ± 3.9%

# Three entries from above, set out differently.
compound	measurement	setting	value
O=C1NC(=O)/C(=C\c2ccc3nccnc3c2)S1	percent Bodipy-positive cells	[3]	33.6 ± 3.9%
COC(=O)N1CCN(Cc2cccc(NC(=O)Nc3ccc(C)nc3)c2F)CC1	percent Bodipy-positive cells	[2]	11.1 ± 3.5%
CNC(=O)[C@H]1O[C@@H](n2cnc3c(NCc4ccc(N)cc4)ncnc32)[C@H](O)[C@@H]1O	percent Bodipy-positive cells	[3]	30.5 ± 3.5%
